Laboratory results published in patent publication US12557831B2, “Mogrosides and uses of the same” (The Coca-Cola Company, priority 2019, dated 2026).

Experiment: Sweetness evaluation of CC-00489 compared to sucrose reference (sip & spit taste test, two panelists)
Format: in vivo
Details: 400 ppm in DI water, one panelist

In the case of C[C@H](CCC(OC1OC(COC2OCC(O)C(O)C2O)C(O)C(O)C1OCC1OC(CO)C(O)C(O)C1O)C(C)(C)O)[C@H]1CC[C@@]2(C)C3CC=C4[C@@H](CC[C@H](OC5OC(CO)C(O)C(O)C5O)C4(C)C)[C@]3(C)[C@H](O)C[C@]12C (stereo partly drawn) [CC-00489, mogrol-3-O-[β-D-glucopyranoside]-24-O-{[β-D-glucopyranosyl-(1→2)]-[β-D-xylopyranosyl-(1→6)]-β-D-glucopyranoside}], the “astringency (taste profile)” value is reported as “weak astringency” and the “mouthfeel (taste profile)” value is reported as “good mouthfeel”.
